Experimental data: PubChem BioAssay AID334 (DTP/NCI, 2004)
The list does not hold the whole screen: it gathers tests that were run many times, whatever their T/C, doses with no T/C, and many T/C values between a quarter and a half above the control. Further doses and runs are listed elsewhere. T/C: endpoint of the treated group in % of that of the vehicle group. Some entries give survivors of the animals treated and no T/C: the source holds a T/C of zero for them, seemingly a mark for toxic or unscored doses. Some survivor counts are full or nearly so, which does not show that the dose was tolerated: survival well below the control is almost never listed, so the zero probably covers shortened survival too. Counts of survivors are from the toxicity check (mostly the fifth day) where no day follows; animals may have died later. Schedules are NCI's codes, read here as Q, the interval in days (D) or hours (H), X, the number of doses. Some entries were tested several times; their values stand side by side, smallest first. Where survival is the endpoint, this PubChem deposit counts one and a half times the control or more as active, and values a quarter to a half above the control carry no call in these data; other NCI protocols may use other cut-offs. Some T/C values are followed by the survivors on the day toxicity was checked, most often the fifth; where none is given, no animal had died by that day. Signs of the kind (2×) say how often a value occurs here.

Test system: CD2F1 mice, intracerebral P388 leukemia, median survival T/C%
Assay: NCI In Vivo Anticancer Drug Screen. Data for tumor model P388 Leukemia (intracerebral) in CD2F1 (CDF1) mice
Settings: T/C endpoint: median survival time, higher T/C = longer survival
Description: The antitumor activity of compounds was measured in mice bearing transplantable tumors. Survival or tumor size were measured and the results are expressed as the measurement made in the treated group (T) divided by the measurement made in the vehicle treated control group (C). The tumor model used in this assay is P388 Leukemia (intracerebral) in CD2F1 (CDF1) mice

[1] = dose: 512.0 mg/kg/injection, schedule: Q01DX009 (ip), vehicle: Klucel (hydroxypropylcellulose) (HPC)

CN(Cc1cnc2nc(N[Si](C)(C)C)nc(N[Si](C)(C)C)c2n1)c1ccc(C(=O)NC(CCC(=O)O[Si](C)(C)C)C(=O)O[Si](C)(C)C)cc1 (stereo not given)
survivor count (dose: 2.5 mg/kg/injection, schedule: Q01DX009 (ip), vehicle: olive oil, sesame oil, peanut oil): 6 of 6 | survivor count (dose: 5.0 mg/kg/injection, schedule: Q01DX009 (ip), vehicle: olive oil, sesame oil, peanut oil): 6 of 6 | survivor count (dose: 7.5 mg/kg/injection, schedule: Q04DX003 (ip), vehicle: saline): 5 of 6 | survivor count (dose: 10.0 mg/kg/injection, schedule: Q01DX009 (ip), vehicle: olive oil, sesame oil, peanut oil): 6 of 6 | survivor count (dose: 10.0 mg/kg/injection, schedule: Q01DX009 (ip), vehicle: saline): 5 of 6 | survivor count (dose: 20.0 mg/kg/injection, schedule: Q01DX009 (ip), vehicle: olive oil, sesame oil, peanut oil): 5 of 6 | survivor count (dose: 20.0 mg/kg/injection, schedule: Q01DX009 (ip), vehicle: saline): 3 of 6 | survivor count (dose: 120.0 mg/kg/injection, schedule: Q04DX003 (ip), vehicle: saline): 4 of 6

Cc1cc(NC(=O)NCc2ccc(N3C(N)=NC(N)=NC3(C)C)cc2)ccc1S(=O)(=O)F
survivor count (dose: 100.0 mg/kg/injection, schedule: Q01DX009 (ip), vehicle: saline with Tween-80): 3 of 6

O=NN(CCCl)C(=O)NCCCl
T/C (dose: 2.5 mg/kg/injection, schedule: Q01DX009 (ip), vehicle: saline + alcohol): 105 [9 of 10 alive], 138, 140, 143, 165, 166, 172, 173, 210 % of control | T/C (dose: 4.0 mg/kg/injection, schedule: Q01DX005 (iv), vehicle: saline + alcohol): 135 % of control | T/C (dose: 5.0 mg/kg/injection, schedule: Q01DX009 (ip), vehicle: saline + alcohol, evaluated on day 30): 164 [9 of 10 alive], 166, 171, 178, 186, 190, 202, 203, 207 % of control | T/C (dose: 5.0 mg/kg/injection, schedule: Q01DX009 (ip), vehicle: saline + alcohol, evaluated on day 60): 190 % of control | T/C (dose: 10.0 mg/kg/injection, schedule: Q01DX009 (ip), vehicle: saline + alcohol, evaluated on day 30): 119, 122, 128, 135, 136, 137, 146, 200, 214 % of control | T/C (dose: 10.0 mg/kg/injection, schedule: Q01DX009 (ip), vehicle: saline + alcohol, evaluated on day 60): 148 % of control | T/C (dose: 15.0 mg/kg/injection, schedule: Q01DX009 (ip), vehicle: saline + alcohol, evaluated on day 30): 99, 100 (2×), 107, 109, 110 (2×), 116, 121 % of control [8 of 10 alive] | T/C (dose: 15.0 mg/kg/injection, schedule: Q01DX009 (ip), vehicle: saline + alcohol, evaluated on day 60): 115 % of control | T/C (dose: 16.0 mg/kg/injection, schedule: Q01DX005 (iv), vehicle: saline + alcohol): 141 % of control | survivor count (dose: 50.0 mg/kg/injection, schedule: Q01DX001 (ip), vehicle: saline + alcohol): 10 of 10

CCC(=O)O[C@H]1CC[C@H]2[C@@H]3CC[C@H]4CC(=O)[C@H](C)C[C@]4(C)[C@H]3CC[C@]12C
T/C [1]: 125 % of control

CC/C(=C(/CC)c1ccc(O)cc1)c1ccc(O)cc1
survivor count (dose: 512.0 mg/kg/injection, schedule: Q01DX009 (ip), vehicle: saline): 6 of 6

NC(C/[N+]([O-])=N/O)C(=O)O (stereo not given)
survivor count (dose: 100.0 mg/kg/injection, schedule: Q01DX009 (ip), vehicle: Klucel (hydroxypropylcellulose) (HPC)): 4 of 6 and 6 of 6 | survivor count (dose: 112.5 mg/kg/injection, schedule: Q01DX009 (ip), vehicle: saline): 4 of 6 | survivor count (dose: 200.0 mg/kg/injection, schedule: Q01DX009 (ip), vehicle: Klucel (hydroxypropylcellulose) (HPC)): 3 of 5 and 5 of 6 | survivor count (dose: 225.0 mg/kg/injection, schedule: Q01DX009 (ip), vehicle: saline): 4 of 6 | survivor count (dose: 400.0 mg/kg/injection, schedule: Q01DX009 (ip), vehicle: Klucel (hydroxypropylcellulose) (HPC)): 2 of 6 and 4 of 6 | survivor count (dose: 450.0 mg/kg/injection, schedule: Q01DX009 (ip), vehicle: saline): 4 of 6 | survivor count (dose: 800.0 mg/kg/injection, schedule: Q01DX009 (ip), vehicle: Klucel (hydroxypropylcellulose) (HPC)): 0 of 6 and 2 of 6 | survivor count (dose: 900.0 mg/kg/injection, schedule: Q01DX009 (ip), vehicle: saline): 2 of 6

CCCCCC(=O)O[C@]1(C(C)=O)CC[C@H]2[C@@H]3CCC4=CC(=O)CC[C@]4(C)[C@H]3CC[C@@]21C
T/C (dose: 64.0 mg/kg/injection, schedule: Q01DX009 (ip), vehicle: saline with Tween-80): 133 % of control

CC1(C)N=C(N)N=C(N)N1c1ccc(OCC(=O)Nc2ccc(S(=O)(=O)F)cc2)c(Cl)c1
T/C (dose: 400.0 mg/kg/injection, schedule: Q04DX003 (ip), vehicle: saline): 127 % of control

O=C1NC2(CCCCC2)C(=O)N1CCN(CCCl)CCCl
survivor count (dose: 3.0 mg/kg/injection, schedule: Q01DX009 (ip), vehicle: saline): 2 of 6 | survivor count (dose: 10.0 mg/kg/injection, schedule: Q01DX005 (iv), vehicle: clinical formulation): 6 of 8 | survivor count (dose: 10.0 mg/kg/injection, schedule: Q01DX009 (ip), vehicle: clinical formulation): 5 of 8 | T/C (dose: 12.0 mg/kg/injection, schedule: Q01DX009 (ip), vehicle: saline): 134 % of control [5 of 6 alive] | survivor count (dose: 20.0 mg/kg/injection, schedule: Q01DX005 (iv), vehicle: clinical formulation): 0 of 8 | survivor count (dose: 20.0 mg/kg/injection, schedule: Q01DX009 (ip), vehicle: clinical formulation): 4 of 8 | survivor count (dose: 24.0 mg/kg/injection, schedule: Q01DX009 (ip), vehicle: saline): 3 of 6 | survivor count (dose: 40.0 mg/kg/injection, schedule: Q01DX009 (ip), vehicle: clinical formulation): 0 of 8 | survivor count (dose: 40.0 mg/kg/injection, schedule: Q01DX009 (ip), vehicle: saline with Tween-80): 5 of 8

CCN(CC)c1ccc2cc3ccc(=[N+](CC)CC)cc-3oc2c1
survivor count (dose: 16.0 mg/kg/injection, schedule: Q01DX005 (ip), vehicle: suspension in saline): 7 of 10 | survivor count (dose: 32.0 mg/kg/injection, schedule: Q01DX005 (ip), vehicle: suspension in saline): 0 of 10

CCCCCCOC(=O)C(N)Cc1ccc(N(CCCl)CCCl)cc1 (stereo not given)
T/C (dose: 12.8 mg/kg/injection, schedule: Q03HX008 (ip), vehicle: saline): 126 % of control | T/C (dose: 25.5 mg/kg/injection, schedule: Q03HX008 (ip), vehicle: saline): 147 % of control | survivor count (dose: 51.0 mg/kg/injection, schedule: Q03HX008 (ip), vehicle: saline): 9 of 10

CC1(C)N=C(N)N=C(N)N1c1ccc(CCCCc2ccc(S(=O)(=O)F)cc2Cl)c(Cl)c1
T/C (dose: 25.0 mg/kg/injection, schedule: Q01DX009 (ip), vehicle: saline with Tween-80): 130 % of control | T/C (dose: 89.0 mg/kg/injection, schedule: Q04DX003 (ip), vehicle: saline with Tween-80): 127 % of control | survivor count (dose: 450.0 mg/kg/injection, schedule: Q04DX003 (ip), vehicle: saline with Tween-80): 3 of 6

C[C@]12C=CC(=O)C=C1CC[C@@H]1[C@@H]2CC[C@]2(C)OC(=O)CC[C@@H]12
survivor count (dose: 256.0 mg/kg/injection, schedule: Q01DX009 (ip), vehicle: Klucel (hydroxypropylcellulose) (HPC)): 0 of 6 and 2 of 6 | survivor count [1]: 0 of 6 | survivor count (dose: 512.0 mg/kg/injection, schedule: Q01DX009 (ip), vehicle: saline with Tween-80): 3 of 6 and 4 of 6

CCCCCCC(=O)O[C@H]1CC[C@H]2[C@@H]3CCC4=CC(=O)CC[C@]4(C)[C@H]3CC[C@]12C
survivor count (dose: 256.0 mg/kg/injection, schedule: Q01DX009 (ip), vehicle: saline + alcohol): 1 of 6 and 3 of 6

CC(=O)N[C@@H](Cc1ccc(N(CCCl)CCCl)cc1)C(=O)ON1C(=O)CCC1=O
T/C (dose: 11.6 mg/kg/injection, schedule: Q03HX008 (ip), vehicle: saline): 126 % of control [9 of 10 alive] | T/C (dose: 23.2 mg/kg/injection, schedule: Q03HX008 (ip), vehicle: saline): 131 % of control [7 of 10 alive] | survivor count (dose: 46.4 mg/kg/injection, schedule: Q03HX008 (ip), vehicle: saline): 9 of 10
